Source: publication PMC8716364, “A Redox-Sensitive Cysteine Is Required for PIN1At Function” (Frontiers in Plant Science, 2021)
No constants are given. Whether binding was seen depends on the method and setting. Tags and fused reporters may be left off the sequences shown.

Target: Arabidopsis PIN1At, untagged recombinant protein (Arabidopsis thaliana) (UniProt Q9SL42)
Assay: condition: only reduced, without H2O2 (76 μM protein); SEC-MALS; 76 μM (300 μg) reduced PIN1At, no H2O2, 30 mM Tris-HCl pH 8.0, 200 mM NaCl, Superdex200 10/300; both purified

binding: no binding
B1: Arabidopsis PIN1At, untagged recombinant protein (enzyme, Arabidopsis thaliana, UniProt Q9SL42 2-119, looked up)
chain: ASRDQVKASHILIKHQGSRRKASWKDPEGKIILTTTREAAVEQLKSIREDIVSGKANFEEVATRVSDCSSAKRGGDLGSFGRGQMQKPFEEATYALKVGDISDIVDTDSGVHIIKRTA
notes: Single cysteine, Cys69; the printed masses (12.3 kDa, 12,882.7 Da; theoretical 13,014.7 Da) fit the untagged protein; also called PAR1; PIN1At/PAR1; source: E. coli BL21 (DE3) with pSBET, pET12a, purified (ammonium sulfate, ACA44 gel filtration, DEAE-Sephacel)
